Earlier results in article PMC9585582 (ACS Bio & Med Chem Au, 2022).

What was measured:
purified microtubules = settings: cited from earlier work
fixed cells = settings: cited from earlier work

For `COc1cc2c(c(OC)c1OC)-c1ccc(OC)c(=O)cc1[C@@H](NC(C)=O)CC2` [colchicine], the Kd (purified microtubules) is given as 24 nM and the IC50 (fixed cells) is given as 22 nM.
